# Measurements as given in paper PMC8384837.
# Positions count from the first letter of the chain named. This is one part of the list. For part of these data: At the low end of the ranking the order means little.
# Legend:
# Conditions in all cases: yeast three-hybrid, YBZ-1, SC-Leu-His + 0.5 mM 3-AT, 4 days
# [1] = target: T1, PUM1 PUF domain R3-GRV C935G + Q939V (Homo sapiens) (UniProt Q14671)
# T1 sequence: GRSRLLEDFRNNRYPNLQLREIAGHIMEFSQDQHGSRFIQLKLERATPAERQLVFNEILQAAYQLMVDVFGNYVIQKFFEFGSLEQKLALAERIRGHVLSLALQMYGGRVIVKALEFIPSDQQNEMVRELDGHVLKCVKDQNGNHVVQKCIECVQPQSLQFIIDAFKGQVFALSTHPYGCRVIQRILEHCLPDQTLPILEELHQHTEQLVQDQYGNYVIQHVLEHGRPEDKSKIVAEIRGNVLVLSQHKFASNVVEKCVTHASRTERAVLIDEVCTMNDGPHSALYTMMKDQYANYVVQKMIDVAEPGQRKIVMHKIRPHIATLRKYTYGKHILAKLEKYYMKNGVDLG
# [2] = target: T2, PUM1 PUF domain R3-GRW C935G + Q939W (Homo sapiens) (UniProt Q14671)
# T2 sequence: T1 sequence with V112W
# [3] = target: T3, PUM1 PUF domain R3-GYV C935G + R936Y + Q939V (Homo sapiens) (UniProt Q14671)
# T3 sequence: T1 sequence with R109Y
# [4] = target: T4, PUM1 PUF domain R3-GYW C935G + R936Y + Q939W (Homo sapiens) (UniProt Q14671)
# T4 sequence: T1 sequence with R109Y, V112W
# [5] = target: T5, PUM1 PUF domain R3-KRG C935K + Q939G (Homo sapiens) (UniProt Q14671)
# T5 sequence: T1 sequence with G108K, V112G
# [6] = target: T6, PUM1 PUF domain R3-KSG C935K + R936S + Q939G (Homo sapiens) (UniProt Q14671)
# T6 sequence: T1 sequence with G108K, R109S, V112G
# [7] = target: T7, PUM1 PUF domain R3-KSS C935K + R936S + Q939S (Homo sapiens) (UniProt Q14671)
# T7 sequence: T1 sequence with G108K, R109S, V112S
# [8] = target: T8, PUM1 PUF domain R3-PFL C935P + R936F + Q939L (Homo sapiens) (UniProt Q14671)
# T8 sequence: T1 sequence with G108P, R109F, V112L
# [9] = target: T9, PUM1 PUF domain R3-PWW C935P + R936W + Q939W (UniProt Q14671)
# T9 sequence: T1 sequence with G108P, R109W, V112W
# [10] = target: T10, PUM1 PUF domain R3-QPR C935Q + R936P + Q939R (Homo sapiens) (UniProt Q14671)
# T10 sequence: T1 sequence with G108Q, R109P, V112R
# [11] = target: T11, PUM1 PUF domain R3-RAA C935R + R936A + Q939A (Homo sapiens) (UniProt Q14671)
# T11 sequence: T1 sequence with G108R, R109A, V112A
# [12] = target: T12, PUM1 PUF domain R3-RAD C935R + R936A + Q939D (UniProt Q14671)
# T12 sequence: T1 sequence with G108R, R109A, V112D
# [13] = target: T13, PUM1 PUF domain R3-RAF C935R + R936A + Q939F (Homo sapiens) (UniProt Q14671)
# T13 sequence: T1 sequence with G108R, R109A, V112F
# [14] = target: T14, PUM1 PUF domain R3-RAG C935R + R936A + Q939G (Homo sapiens) (UniProt Q14671)
# T14 sequence: T1 sequence with G108R, R109A, V112G
# [15] = target: T15, PUM1 PUF domain R3-RAL C935R + R936A + Q939L (UniProt Q14671)
# T15 sequence: T1 sequence with G108R, R109A, V112L
# [16] = target: T16, PUM1 PUF domain R3-RAP C935R + R936A + Q939P (UniProt Q14671)
# T16 sequence: T1 sequence with G108R, R109A, V112P
# [17] = target: T17, PUM1 PUF domain R3-RAR C935R + R936A + Q939R (Homo sapiens) (UniProt Q14671)
# T17 sequence: T1 sequence with G108R, R109A, V112R
# [18] = target: T18, PUM1 PUF domain R3-RAS C935R + R936A + Q939S (Homo sapiens) (UniProt Q14671)
# T18 sequence: T1 sequence with G108R, R109A, V112S
# [19] = target: T19, PUM1 PUF domain R3-RAV C935R + R936A + Q939V (Homo sapiens) (UniProt Q14671)
# T19 sequence: T1 sequence with G108R, R109A
# [20] = target: T20, PUM1 PUF domain R3-RDR C935R + R936D + Q939R (Homo sapiens) (UniProt Q14671)
# T20 sequence: T1 sequence with G108R, R109D, V112R
# [21] = target: T21, PUM1 PUF domain R3-RDS C935R + R936D + Q939S (UniProt Q14671)
# T21 sequence: T1 sequence with G108R, R109D, V112S
# [22] = target: T22, PUM1 PUF domain R3-RER C935R + R936E + Q939R (UniProt Q14671)
# T22 sequence: T1 sequence with G108R, R109E, V112R
# [23] = target: T23, PUM1 PUF domain R3-RGG C935R + R936G + Q939G (Homo sapiens) (UniProt Q14671)
# T23 sequence: T1 sequence with G108R, R109G, V112G
# [24] = target: T24, PUM1 PUF domain R3-RGR C935R + R936G + Q939R (Homo sapiens) (UniProt Q14671)
# T24 sequence: T1 sequence with G108R, R109G, V112R
# [25] = target: T25, PUM1 PUF domain R3-RPA C935R + R936P + Q939A (Homo sapiens) (UniProt Q14671)
# T25 sequence: T1 sequence with G108R, R109P, V112A
# [26] = target: T26, PUM1 PUF domain R3-RPG C935R + R936P + Q939G (Homo sapiens) (UniProt Q14671)
# T26 sequence: T1 sequence with G108R, R109P, V112G
# [27] = target: T27, PUM1 PUF domain R3-RPH C935R + R936P + Q939H (UniProt Q14671)
# T27 sequence: T1 sequence with G108R, R109P, V112H
# [28] = target: T28, PUM1 PUF domain R3-RPK C935R + R936P + Q939K (Homo sapiens) (UniProt Q14671)
# T28 sequence: T1 sequence with G108R, R109P, V112K
# [29] = target: T29, PUM1 PUF domain R3-RPR C935R + R936P + Q939R (Homo sapiens) (UniProt Q14671)
# T29 sequence: T1 sequence with G108R, R109P, V112R
# [30] = target: T30, PUM1 PUF domain R3-RPS C935R + R936P + Q939S (Homo sapiens) (UniProt Q14671)
# T30 sequence: T1 sequence with G108R, R109P, V112S
# [31] = target: T31, PUM1 PUF domain R3-RPV C935R + R936P + Q939V (Homo sapiens) (UniProt Q14671)
# T31 sequence: T1 sequence with G108R, R109P
# [32] = target: T32, PUM1 PUF domain R3-RPW C935R + R936P + Q939W (UniProt Q14671)
# T32 sequence: T1 sequence with G108R, R109P, V112W
# [33] = target: T33, PUM1 PUF domain R3-RQG C935R + R936Q + Q939G (Homo sapiens) (UniProt Q14671)
# T33 sequence: T1 sequence with G108R, R109Q, V112G
sequence,measurement,setting,value
GGCUAGAACUAGUGGAUCCCCCGGCGCCCGGCGGCUCGAGCCCGGGUAAGUGUAAGUAGUCUGCAUGCCGCCGGGCGCCAUGCCUGCAGGUCGACUCUAGAAAACAUG,binding signal (log2 enrichment (interaction score)),[1],-0.8
same,binding signal (log2 enrichment (interaction score)),[2],-1.86
same,binding signal (log2 enrichment (interaction score)),[3],-2.18
same,binding signal (log2 enrichment (interaction score)),[4],-0.49
same,binding signal (log2 enrichment (interaction score)),[5],-1.43
same,binding signal (log2 enrichment (interaction score)),[6],-0.34
same,binding signal (log2 enrichment (interaction score)),[7],0.22
same,binding signal (log2 enrichment (interaction score)),[8],-0.36
same,binding signal (log2 enrichment (interaction score)),[9],< -6.86
same,binding signal (log2 enrichment (interaction score)),[10],0.44
same,binding signal (log2 enrichment (interaction score)),[11],0.2
same,binding signal (log2 enrichment (interaction score)),[12],-2.76
same,binding signal (log2 enrichment (interaction score)),[13],-1.56
same,binding signal (log2 enrichment (interaction score)),[14],0.36
same,binding signal (log2 enrichment (interaction score)),[15],-2.47
same,binding signal (log2 enrichment (interaction score)),[16],< -6.87
same,binding signal (log2 enrichment (interaction score)),[17],0.38
same,binding signal (log2 enrichment (interaction score)),[18],0.01
same,binding signal (log2 enrichment (interaction score)),[19],-1.18
same,binding signal (log2 enrichment (interaction score)),[20],-1.85
same,binding signal (log2 enrichment (interaction score)),[21],< -9.22
same,binding signal (log2 enrichment (interaction score)),[22],-5.45
same,binding signal (log2 enrichment (interaction score)),[23],-0.89
same,binding signal (log2 enrichment (interaction score)),[24],-1.43
same,binding signal (log2 enrichment (interaction score)),[25],0.21
same,binding signal (log2 enrichment (interaction score)),[26],-0.33
same,binding signal (log2 enrichment (interaction score)),[27],< -8
same,binding signal (log2 enrichment (interaction score)),[28],0.03
same,binding signal (log2 enrichment (interaction score)),[29],-0.71
same,binding signal (log2 enrichment (interaction score)),[30],-1.08
same,binding signal (log2 enrichment (interaction score)),[31],-1.78
same,binding signal (log2 enrichment (interaction score)),[32],< -7.2
same,binding signal (log2 enrichment (interaction score)),[33],-0.2

# An excerpt from further up:
sequence,measurement,setting,value
GGCUAGAACUAGUGGAUCCCCCGGCGCCCGGCGGCUCGAGCCCGGGUAAGUGUAAGUAGUCUGCAUGCCGCCGGGCGCCAUGCCUGCAGGUCGACUCUAGAAAACAUG,binding signal (log2 enrichment (interaction score)),[16],< -6.87
same,binding signal (log2 enrichment (interaction score)),[17],0.38
same,binding signal (log2 enrichment (interaction score)),[18],0.01
same,binding signal (log2 enrichment (interaction score)),[19],-1.18
same,binding signal (log2 enrichment (interaction score)),[20],-1.85
same,binding signal (log2 enrichment (interaction score)),[21],< -9.22
